# Test results taken from patent US11865108B2, “Nitrogen containing bicyclic compounds” (Wockhardt Limited, priority 2019, dated 2024).
# For at least one compound, name, drawing or mass did not settle the structure.
# Test system: Multi Drug Resistant (MDR) Gram negative strains
# Test: Antibacterial activity alone and in combination, summary of Table 3
# Format: cell-based, K. pneumoniae
# Details: strains of Table 3
# Experimental: The biological activity of representative compounds according to the invention against various bacterial strains was investigated. In a typical study, overnight grown bacterial cultures were diluted appropriately and inoculated on the agar media containing doubling dilutions of the test compounds. Observations for growth or no growth was performed after 16-20 hours of incubation at 35±2° C. in the ambient air. The overall procedure was performed as per Clinical and Laboratory Standards Institute (CLSI) recommendations, (Clinical and Laboratory Standards Institute (CLSI), Performance Standards for Antimicrobial Susceptibility Testing, 20th Informational Supplement, M07-A9, Volume 32, No. 2, 2012). Molten Mueller Hinton Agar (MHA) (BD, USA) containing serial dilutions of each antibacterial agent were poured on to the plates and allowed to solidify. Appropriate suspensions from the freshly grown cultures were prepared in normal saline so that about 10^4 CFU/spot of the organism was delivered on to the drug containing agar plates using automated multipoint inoculator (Mast, UK). The plates were incubated in Biochemical oxygen demand (BOD) incubator at 37° C. for 18 hours and then examined for growth. […] The Table 2 depicts the antibacterial activity profile of compounds according to present invention against various multidrug resistant bacterial strains. […]
compound,measurement,value
"C=CC1=C(C(=O)O)N2C(=O)[C@@H](NC(=O)/C(=N\OCC(=O)O)c3csc(N)n3)[C@H]2SC1 [Cefixime, reference compound]",antibacterial activity when used alone,did not exhibit significant antibacterial activity
